Measurements reported in PMC6078970, “Nonequilibrium self-assembly dynamics of icosahedral viral capsids packaging genome or polyelectrolyte” (Nature Communications, 2018).
These are yes or no findings as the source states them, for the method shown. Some binding calls cover weakened binding; strength is not graded here.

Sequences of proteins named here, by UniProt entry; tags and fusion partners are left off. Residues count along the entry.
UniProt P03601, residues 26-190: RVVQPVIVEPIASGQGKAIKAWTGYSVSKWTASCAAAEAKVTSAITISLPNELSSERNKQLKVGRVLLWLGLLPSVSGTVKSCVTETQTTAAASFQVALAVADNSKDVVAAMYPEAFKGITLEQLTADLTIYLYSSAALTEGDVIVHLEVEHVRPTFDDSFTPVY

Experiments:
[1] = molecular target: cowpea chlorotic mottle virus (CCMV) capsid protein, dimeric subunit (cowpea chlorotic mottle virus) (UniProt P03601); assay: time-resolved SAXS + cryo-TEM; NPCs pre-assembled from subunits and genomic RNA (mass ratio 5.5) mixed with buffer bringing pH to 5.2 and ionic strength to 55 mM, 20 °C; capsid shell forms around the RNA genome; cryo-TEM after a few days of incubation; both purified
[2] = molecular target: cowpea chlorotic mottle virus (CCMV) capsid protein, dimeric subunit (cowpea chlorotic mottle virus) (UniProt P03601); assay: time-resolved SAXS + cryo-TEM; subunits mixed with 600-kDa poly(styrene sulfonic acid) (PSS) at pH 7.5, final ionic strength 0.1 M, subunit-to-PSS mass ratio 8 (SAXS) or 6 (cryo-TEM); capsid shell forms around PSS; both purified

“cowpea chlorotic mottle virus (CCMV) capsid protein, dimeric subunit (from UniProt P03601 26-190)” was tested, and the binding [1] was “binds” and the binding [2] was “binds”.
